The text below walks through data of patent US20230330034A1, “COVALENTLY CROSS-LINKED GLYCOSYLATED MUCIN NANOPARTICLES AS SYSTEMS FOR THE DELIVERY AND RELEASE OF ACTIVE INGREDIENTS AND BIOMOLECULES” (priority 2020, published 2023).

The conditions of the data set: PAMPA, 5 h, 200 µM. (In general: PAMPA measures passive passage across an artificial lipid membrane.)

For `O=C(O)c1cn(C2CC2)c2cc(N3CCNCC3)c(F)cc2c1=O` [ciprofloxacin], the “Ca (t)” value was found to be 5.7 µM, the “Cd(t)” value stood at 77.4 µM and the Ceq was determined as 34.4 µM.
